The values that follow come from publication PMC3898904.

These are yes or no findings as the source states them, for the method shown. Binding seen in cells or lysates may run through a third protein. These calls come from enrichment with a bait or labelling near it, and not all partners need be listed. Sequences can lack the tags named with a protein.

T1: MORC6-3xFlag (Arabidopsis thaliana) (UniProt Q56Y74)
T1 sequence: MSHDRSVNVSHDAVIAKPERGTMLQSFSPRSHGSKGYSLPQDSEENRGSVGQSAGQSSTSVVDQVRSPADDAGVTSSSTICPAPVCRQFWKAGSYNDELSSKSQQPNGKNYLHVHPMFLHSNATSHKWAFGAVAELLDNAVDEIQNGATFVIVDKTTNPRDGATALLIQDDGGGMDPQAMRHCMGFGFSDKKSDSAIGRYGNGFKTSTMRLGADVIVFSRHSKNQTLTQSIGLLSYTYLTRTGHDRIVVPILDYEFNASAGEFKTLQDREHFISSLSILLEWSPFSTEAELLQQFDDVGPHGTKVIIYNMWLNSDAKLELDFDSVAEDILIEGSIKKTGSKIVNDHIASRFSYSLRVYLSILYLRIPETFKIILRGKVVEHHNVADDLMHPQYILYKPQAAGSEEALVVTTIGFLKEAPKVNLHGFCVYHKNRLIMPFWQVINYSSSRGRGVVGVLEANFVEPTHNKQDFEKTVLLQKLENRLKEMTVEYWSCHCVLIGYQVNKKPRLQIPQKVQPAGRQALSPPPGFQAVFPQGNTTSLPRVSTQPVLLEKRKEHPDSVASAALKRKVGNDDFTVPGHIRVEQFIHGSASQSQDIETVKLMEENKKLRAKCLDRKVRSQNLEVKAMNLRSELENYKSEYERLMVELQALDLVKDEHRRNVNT

B1: SUVH9, endogenous (protein, UniProt Q9T0G7 1-650)
chain: MGSSHIPLDPSLNPSPSLIPKLEPVTESTQNLAFQLPNTNPQALISSAVSDFNEATDFSSDYNTVAESARSAFAQRLQRHDDVAVLDSLTGAIVPVEENPEPEPNPYSTSDSSPSVATQRPRPQPRSSELVRITDVGPESERQFREHVRKTRMIYDSLRMFLMMEEAKRNGVGGRRARADGKAGKAGSMMRDCMLWMNRDKRIVGSIPGVQVGDIFFFRFELCVMGLHGHPQSGIDFLTGSLSSNGEPIATSVIVSGGYEDDDDQGDVIMYTGQGGQDRLGRQAEHQRLEGGNLAMERSMYYGIEVRVIRGLKYENEVSSRVYVYDGLFRIVDSWFDVGKSGFGVFKYRLERIEGQAEMGSSVLKFARTLKTNPLSVRPRGYINFDISNGKENVPVYLFNDIDSDQEPLYYEYLAQTSFPPGLFVQQSGNASGCDCVNGCGSGCLCEAKNSGEIAYDYNGTLIRQKPLIHECGSACQCPPSCRNRVTQKGLRNRLEVFRSLETGWGVRSLDVLHAGAFICEYAGVALTREQANILTMNGDTLVYPARFSSARWEDWGDLSQVLADFERPSYPDIPPVDFAMDVSKMRNVACYISHSTDPNVIVQFVLHDHNSLMFPRVMLFAAENIPPMTELSLDYGVVDDWNAKLAICN
B2: MORC1/CRT1, endogenous (protein, UniProt Q84WV6 1-635)
chain: MAKNYTVADVVNIDSDSDSDDDNGGVIGMVPSLASLIENQKVSIADAATVAPRETLECRSFWKAGENFVIPSSVTLTAIGMVEHARVHPKFLHSNATSHKWAFGAIAELLDNAVDEIQNGATVVKIDKINIVKDNTPALVFQDNGGGMDPNGIRKCMSLGYSSKKSNTTIGQYGNGFKTSTMRLGADAMVFSRSTRGGKSTQSIGLLSYTFLRKTGQDDVIVPMIDFDISSDSPQPIIYGSPGDWSTNLNILLKWSPFSTMVELLQQFEDIGTHGTKVIIYNLWLNDEGIYELSFDDDDVDIRLRDENAQDGKRLHAKTLEVRSHISYRYRHSLRAYISMLYLKKFKNFKIILRGVSVAQFNIADEFRHPETIMYKPQAAAVDYAATGIKVGFIKEAPKLPICGFNVYHKNRLIRPFWKVVLEGSTRGNGVMGVLEANFIEPAHDKQDFERSSLFLRLEARLKRITSDYWQNHCHIFGYQTAQIPADKSKRTVIPDQPPTVNTYNPSPLPSDRISHGGPIIREINLSNATSSRTAAVAAPHLRNYTGLRNNFQPVQLNPQPPAAGDTGNNLVGKLAAEIREENLQLFMRCEEYVKKENEVEQTVKSLEKELEEIKSKCAQLALLVDAKKKEMQQV
B3: MORC2, endogenous (protein, UniProt Q5FV35 1-626)
chain: MPPMAKNAAVTDVVHLDSDSDSDNGVVGGRESASTIAGAATMAPRETLECRSFWKAGDYFVIPNVVTPTAPGMLEHARVHPRFLHSNATSHKWAFGAIAELLDNAVDEIQNGATFVKIDKINIVKDNSPALVFQDDGGGMDPAGLRKCMSLGYSSKKSNTTIGQYGNGFKTSTMRLGADAIVFSRSTRGGTSTQSVGILSYTFLRKTGQDDVTVPMIDIDISKERPQPIIYGSPEDWAANLEILLKWSPFSTEDELLQQFEDVGTHGTKVIIYNLWLNDEGIYELSFDDDEEDIRLRDESVNDGKRLHHKILELRSHISYHLRYSLRAYASMLYLKKFKNFKIIIRGIPVEQFNIADGFRFPEIIKYKPHTATTEQASTEIKIGFVKEAPKLAICGFNVYHKNRLIRPFWKVTMGGDSTGHGVVGVLEANFIEPAHDKQDFERSSLFQRLEARLKKIVYSYWYSHCHLLGYHKYQMPADKSKKIAIPDQPPTISTVNPSPLPSDKISQGGPIIREINLSNATSSRTVAFASPHLRNSTGLRSNFQPVQLNPQPTAADTGNNLDGKSAGEIRQENLQLFMRCEEYIKKENETEQTVKSLEKELEEFKSKCAHLALLVDAKKKEMQQA
B4: CHB3/SWI3D, endogenous (protein, UniProt Q8VY05 1-985)
chain: MEEKRRDSAGTLAFAGSSGDSPASEPMPAPRRRGGGLKRKANALGGSNFFSSAPSKRMLTREKAMLASFSPVHNGPLTRARQAPSIMPSAADGVKSEVLNVAVGADGEKPKEEEERNKAIREWEALEAKIEADFEAIRSRDSNVHVVPNHCGWFSWEKIHPLEERSLPSFFNGKLEGRTSEVYREIRNWIMGKFHSNPNIQIELKDLTELEVGDSEAKQEVMEFLDYWGLINFHPFPPTDTGSTASDHDDLGDKESLLNSLYRFQVDEACPPLVHKPRFTAQATPSGLFPDPMAADELLKQEGPAVEYHCNSCSADCSRKRYHCPKQADFDLCTECFNSGKFSSDMSSSDFILMEPAEAPGVGSGKWTDQETLLLLEALEIFKENWNEIAEHVATKTKAQCMLHFLQMPIEDAFLDQIDYKDPISKDTTDLAVSKDDNSVLKDAPEEAENKKRVDEDETMKEVPEPEDGNEEKVSQESSKPGDASEETNEMEAEQKTPKLETAIEERCKDEADENIALKALTEAFEDVGHSSTPEASFSFADLGNPVMGLAAFLVRLAGSDVATASARASIKSLHSNSGMLLATRHCYILEDPPDNKKDPTKSKSCSADAEGNDDNSHKDDQPEEKSKKAEEVSLNSDDREMPDTDTGKETQDSVSEEKQPGSRTENSTTKLDAVQEKRSSKPVTTDNSEKPVDIICPSQDKCSGKELQEPLKDGNKLSSENKDASQSTVSQSAADASQPEASRDVEMKDTLQSEKDPEDVVKTVGEKVQLAKEEGANDVLSTPDKSVSQQPIGSASAPENGTAGGNPNIEGKKEKDICEGTKDKYNIEKLKRAAISAISAAAVKAKNLAKQEEDQIRQLSGSLIEKQLHKLEAKLSIFNEAESLTMRVREQLERSRQRLYHERAQIIAARLGVPPSMSSKASLPTNRIAANFANVAQRPPMGMAFPRPPMPRPPGFPVPGSFVAATTMTGSSDPSPGSDNVSSV

The target in this assay is T1, MORC6-3xFlag (Arabidopsis thaliana). The assay is described as follows: affinity purification with mass spectrometry; 3 g flower tissue of transgenic plants; Lysis buffer (50 mM Tris pH 7.6, 150 mM NaCl, 5 mM MgCl2, 10% glycerol, 0.1% NP-40, 0.5 mM DTT); antibody agarose, 4°C, 2.5 h, four washes, elution with 3xFlag peptide; total eluted proteins or silver-stained bands cut from the SDS-PAGE gel; LTQ mass spectrometer, Mascot.
With B1, the binding entry was “binds”.

As to B2, the binding entry is “binds”.

For B3, the binding entry is given as “binds”.

Turning to B4, the binding entry was “binds”.
